PubChem BioAssay AID1259424 – University of Nebraska Medical Center, 2018
Screen: 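Find knockdowns that reproduce the expression shifts seen after KSR1 loss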 (primary screen). Cell system: human HCT116 colon cancer cells. Reagents: siRNA pool against human genes, 50 nM. Read-out: 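Log2 levels of six mRNAs (branched-DNA multiplex), adjusted by two reference genes and the non-targeting median, then scored against the average KSR1 knockdown pattern as Pearson r and euclidean distance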. Scale: mean correlation with KSR1 profile: higher = expression change more like KSR1 knockdown.
The whole screen tested about 14,000 reagents; this is an unselected part. 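Higher correlation or smaller distance means closer resemblance to KSR1 loss; control wells, including KSR1 knockdowns, recur on many plates.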 Not all columns of the deposit are shown. Not given: the time to read-out.

ARHGEF16 (Rho guanine nucleotide exchange factor 16) — mean correlation with KSR1 profile: 0.165
ELK4 (ETS transcription factor ELK4) — mean correlation with KSR1 profile: 0.606
GUCA1A (guanylate cyclase activator 1A) — mean correlation with KSR1 profile: 0.534
SCUBE1 (signal peptide, CUB domain and EGF like domain containing 1) — mean correlation with KSR1 profile: -0.0141
TACC3 (transforming acidic coiled-coil containing protein 3) — mean correlation with KSR1 profile: -0.701
CYP2E1 (cytochrome P450 family 2 subfamily E member 1) — mean correlation with KSR1 profile: 0.0331
TAS2R1 (taste 2 receptor member 1) — mean correlation with KSR1 profile: 0.441
NT5DC3 (5'-nucleotidase domain containing 3) — mean correlation with KSR1 profile: 0.318

Entries above whose gene name begins with T or t:
TACC3 (transforming acidic coiled-coil containing protein 3) — mean correlation with KSR1 profile: -0.701
TAS2R1 (taste 2 receptor member 1) — mean correlation with KSR1 profile: 0.441

The results go on.
MEGF10 (multiple EGF like domains 10) — mean correlation with KSR1 profile: 0.0592
UTP20 (UTP20 small subunit processome component) — mean correlation with KSR1 profile: 0.339
NRCAM (neuronal cell adhesion molecule) — mean correlation with KSR1 profile: -0.239
TAF11 (TATA-box binding protein associated factor 11) — mean correlation with KSR1 profile: -0.601
BOLL (boule RNA binding protein) — mean correlation with KSR1 profile: -0.372
ETHE1 (ETHE1 persulfide dioxygenase) — mean correlation with KSR1 profile: -0.318
SLC25A5 — mean correlation with KSR1 profile: -0.653
CERS1 (ceramide synthase 1) — mean correlation with KSR1 profile: 0.901
PLEKHH1 (pleckstrin homology, MyTH4 and FERM domain containing H1) — mean correlation with KSR1 profile: -0.753
KCNN3 (potassium calcium-activated channel subfamily N member 3) — mean correlation with KSR1 profile: 0.0504
GTPBP8 (GTP binding protein 8) — mean correlation with KSR1 profile: 0.367
